# Data source: PubChem BioAssay AID1259308 (NCATS, 2017)
# Screen: 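Genes whose loss raises luciferase production in HEK293 cells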 (primary screen)
# System: human HEK293 embryonic kidney cells stably expressing firefly luciferase (HEK-CMV-Luc2-Hygro)
# Reagents: single siRNA against human genes, 0.8 pmol siRNA per well
# Time to read-out: 72 h
# Read-out: 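Reporter luminescence and viable-cell signal on separate replicate plates, given as percent of non-targeting control and median/MAD z-scores, plus per-cell luciferase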
# Reading the numbers: total luciferase, z-score and total luciferase, % of control: higher = more reporter protein produced; luciferase per cell, z-score: higher = more reporter output per viable cell
# Rule for the call: 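Active when the median/MAD z-score for overall luciferase is greater than 3; a gene was taken forward for validation with new siRNAs if at least two of its three siRNAs passed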
# Meaning of the calls: active = raised luciferase; inactive = no rise
# Shown is an unselected part of about 59,000 reagents. In the full data, about 1,510 (2.6%) were called active. 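Calls use total luciferase alone and ignore viability, so some active siRNAs may act by altering cell number.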 Reagents against one gene are numbered here. Further read-outs or replicates are left out here. No sequences are given here.
The opening 5 entries, ahead of the listing:
gene symbol,siRNA no.,"total luciferase, z-score","total luciferase, % of control","luciferase per cell, z-score",outcome
ZXDB (GeneID 158586),1,-0.928,63.4,-1.22,inactive
ZXDB (GeneID 158586),2,0.723,96.3,0.294,inactive
ZXDB (GeneID 158586),3,0.849,98.8,-0.047,inactive
MRPS28 (GeneID 28957),1,0.104,84,0.472,inactive
MRPS28 (GeneID 28957),2,0.04,82.7,-0.37,inactive

Results, from the start:
gene symbol,siRNA no.,"total luciferase, z-score","total luciferase, % of control","luciferase per cell, z-score",outcome
ZXDB (GeneID 158586),1,-0.928,63.4,-1.22,inactive
ZXDB (GeneID 158586),2,0.723,96.3,0.294,inactive
ZXDB (GeneID 158586),3,0.849,98.8,-0.047,inactive
MRPS28 (GeneID 28957),1,0.104,84,0.472,inactive
MRPS28 (GeneID 28957),2,0.04,82.7,-0.37,inactive
MRPS28 (GeneID 28957),3,2.67,135,1.45,inactive
TXNDC16 (GeneID 57544),1,0.879,99.4,1.01,inactive
TXNDC16 (GeneID 57544),2,2.42,130,2.05,inactive
TXNDC16 (GeneID 57544),3,0.46,91,0.893,inactive
STK31 (GeneID 56164),1,2.37,129,2.02,inactive
STK31 (GeneID 56164),2,2.68,135,1.71,inactive
STK31 (GeneID 56164),3,-1.68,48.5,-0.756,inactive
LHFPL2 (GeneID 10184),1,2.46,131,2.18,inactive
LHFPL2 (GeneID 10184),2,1.26,107,0.739,inactive
LHFPL2 (GeneID 10184),3,-0.331,75.3,-0.289,inactive
LDB1 (GeneID 8861),1,0.447,90.8,0.331,inactive
LDB1 (GeneID 8861),2,2.47,131,2.47,inactive
LDB1 (GeneID 8861),3,1.02,102,0.756,inactive
CDRT15P13 (GeneID 642669),1,-0.171,78.5,0.0699,inactive
CDRT15P13 (GeneID 642669),2,3.58,153,2.82,active
CDRT15P13 (GeneID 642669),3,-1.86,44.9,-1.74,inactive
GNB4 (GeneID 59345),1,-0.341,75.1,-0.297,inactive
GNB4 (GeneID 59345),2,-0.274,76.4,-0.489,inactive
GNB4 (GeneID 59345),3,-1.11,59.8,-0.754,inactive
RGS5 (GeneID 8490),1,0.174,85.3,0.299,inactive
RGS5 (GeneID 8490),2,-0.207,77.8,-0.807,inactive
RGS5 (GeneID 8490),3,1.99,121,0.191,inactive
CFP (GeneID 5199),1,1.36,109,1.08,inactive
CFP (GeneID 5199),2,-1.23,57.4,-1.39,inactive
CFP (GeneID 5199),3,-0.417,73.6,-0.765,inactive
MYO3A (GeneID 53904),1,-1.94,43.3,-1.67,inactive
MYO3A (GeneID 53904),2,-1.9,44,-0.559,inactive
MYO3A (GeneID 53904),3,-0.0963,80,-0.69,inactive
SLC35G3 (GeneID 146861),1,-2.59,30.4,-3.59,inactive
SLC35G3 (GeneID 146861),2,-1.04,61.1,-1.84,inactive
SLC35G3 (GeneID 146861),3,-1.97,42.7,-0.145,inactive
SLC67A2 (GeneID 84804),1,0.911,100,-0.0449,inactive
SLC67A2 (GeneID 84804),2,2.39,129,0.813,inactive
SLC67A2 (GeneID 84804),3,-0.955,62.9,-1.05,inactive
POMGNT1 (GeneID 55624),1,-0.315,75.6,-0.0471,inactive
POMGNT1 (GeneID 55624),2,3.51,152,2.93,active
POMGNT1 (GeneID 55624),3,0.471,91.2,0.913,inactive
KCNQ1 (GeneID 3784),1,1.07,103,0.952,inactive
KCNQ1 (GeneID 3784),2,0.203,85.9,0.199,inactive
KCNQ1 (GeneID 3784),3,0.219,86.2,-0.171,inactive
TMEM65 (GeneID 157378),1,-0.657,68.8,1.18,inactive
TMEM65 (GeneID 157378),2,0.5,91.8,1.09,inactive
TMEM65 (GeneID 157378),3,1.68,115,0.836,inactive
ADIG (GeneID 149685),1,0.089,83.7,0.312,inactive
ADIG (GeneID 149685),2,-1.05,61,-0.401,inactive
ADIG (GeneID 149685),3,-0.537,71.2,-0.292,inactive
NECTIN2 (GeneID 5819),1,1.62,114,1.87,inactive
NECTIN2 (GeneID 5819),2,-0.463,72.7,-1.21,inactive
NECTIN2 (GeneID 5819),3,-0.0657,80.6,-0.724,inactive
TMC4 (GeneID 147798),1,-0.507,71.8,-0.249,inactive
TMC4 (GeneID 147798),2,-1.56,50.9,-1.83,inactive
TMC4 (GeneID 147798),3,-0.816,65.7,-1.07,inactive
TERT (GeneID 7015),1,-0.229,77.3,-0.0604,inactive
TERT (GeneID 7015),2,-1.79,46.3,-1.06,inactive
TERT (GeneID 7015),3,-0.93,63.4,-1.66,inactive
MYG1 (GeneID 60314),1,-0.171,78.5,-0.669,inactive
MYG1 (GeneID 60314),2,0.604,93.9,0.543,inactive
MYG1 (GeneID 60314),3,-2.26,36.8,-2.45,inactive
PLAT (GeneID 5327),1,0.384,89.5,1.08,inactive
PLAT (GeneID 5327),2,0.549,92.8,-0.29,inactive
PLAT (GeneID 5327),3,0.543,92.7,0.633,inactive
NRIP2 (GeneID 83714),1,0.543,92.7,0.871,inactive
NRIP2 (GeneID 83714),2,0.303,87.9,0.371,inactive
NRIP2 (GeneID 83714),3,1.43,110,1.6,inactive
GPR84 (GeneID 53831),1,0.306,88,0.419,inactive
GPR84 (GeneID 53831),2,2.33,128,2.23,inactive
GPR84 (GeneID 53831),3,-0.353,74.9,-0.789,inactive
ZC3HC1 (GeneID 51530),1,-0.571,70.5,-0.717,inactive
ZC3HC1 (GeneID 51530),2,-0.432,73.3,-0.319,inactive
ZC3HC1 (GeneID 51530),3,-1.5,52.1,0.138,inactive
